Reference: doi:10.1101/2025.03.31.646376
No constants are given. Whether binding was seen depends on the method and setting. In cells and extracts the contact can be indirect. Some binding calls cover weakened binding; strength is not graded here. Tags and fused reporters may be left off the sequences shown. Blank lines part the entries; values can stand above or below the binder they belong to.

Target: T1, 3x-Flag-tagged E193Q Msp1 (S. cerevisiae) (UniProt P28737)
T1 sequence: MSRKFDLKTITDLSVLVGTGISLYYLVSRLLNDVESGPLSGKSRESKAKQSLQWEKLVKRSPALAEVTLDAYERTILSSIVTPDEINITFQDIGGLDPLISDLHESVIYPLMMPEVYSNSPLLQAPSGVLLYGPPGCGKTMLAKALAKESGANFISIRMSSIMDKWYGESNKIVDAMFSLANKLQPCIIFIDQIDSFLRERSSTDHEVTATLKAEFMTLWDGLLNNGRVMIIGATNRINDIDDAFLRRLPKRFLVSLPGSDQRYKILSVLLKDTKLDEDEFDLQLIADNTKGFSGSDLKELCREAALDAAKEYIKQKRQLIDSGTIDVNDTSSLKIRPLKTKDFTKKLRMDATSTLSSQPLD
Test: co-IP

binding: binds
B1: 2x-HA-tagged Phb1 (protein, UniProt P40961 1-287)
chain: MSNSAKLIDVITKVALPIGIIASGIQYSMYDVKGGSRGVIFDRINGVKQQVVGEGTHFLVPWLQKAIIYDVRTKPKSIATNTGTKDLQMVSLTLRVLHRPEVLQLPAIYQNLGLDYDERVLPSIGNEVLKSIVAQFDAAELITQREIISQKIRKELSTRANEFGIKLEDVSITHMTFGPEFTKAVEQKQIAQQDAERAKFLVEKAEQERQASVIRAEGEAESAEFISKALAKVGDGLLLIRRLEASKDIAQTLANSSNVVYLPSQHSGGGNSESSGSPNSLLLNIGR

binding: binds
Binder: MISDEQLNSLAITFGIVMMTLIVIYHAVDSTMSPKN (peptide, UniProt Q99380 1-36) [2x-HA-tagged Ost4]
